# Some of the results follow.
# Biological target: T1, OsSMF1 (Oryza sativa, UniProt Q6ZLB0 1-436)
# T1 sequence: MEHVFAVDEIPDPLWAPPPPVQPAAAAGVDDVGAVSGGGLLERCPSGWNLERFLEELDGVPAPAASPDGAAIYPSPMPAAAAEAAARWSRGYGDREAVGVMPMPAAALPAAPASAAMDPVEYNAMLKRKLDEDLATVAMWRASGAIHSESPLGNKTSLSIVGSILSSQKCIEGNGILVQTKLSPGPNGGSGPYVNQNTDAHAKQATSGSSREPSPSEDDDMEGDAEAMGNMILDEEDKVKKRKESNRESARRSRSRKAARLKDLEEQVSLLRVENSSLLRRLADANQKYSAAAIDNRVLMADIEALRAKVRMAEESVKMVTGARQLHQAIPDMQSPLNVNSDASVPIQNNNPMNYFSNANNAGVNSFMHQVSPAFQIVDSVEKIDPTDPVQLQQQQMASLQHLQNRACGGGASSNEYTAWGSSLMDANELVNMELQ
# Assay: protein-binding microarray (RPBM); PBS, 2% BSA, 51.3 ng/ul salmon testes DNA, 50 uM zinc acetate, 200 nM TF, 25 C, 1 h; high values mean tight binding
# Conditions: protein: recombinant; tags: N-terminal polyhistidine and DsRed monomer fusion (pET32a); chain copies: 2; label: CyDye5-dUTP incorporated in the synthesized complementary strand; 3' TTTTT single-stranded linker to array surface; dsDNA, one strand shown
# In short: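 Transcription factors were made in E. coli BL21-CodonPlus as N-terminal fusions to a polyhistidine tag and DsRed, then purified on Ni–NTA. After primer extension with Cy5-dUTP and blocking with 2% BSA, a custom Agilent array was exposed for 1 h at 25 °C to 200 nM protein in PBS, 2% BSA, salmon testes DNA and 50 µM zinc acetate. Washed arrays were scanned on an Axon 4000B, and the binding signal is per-feature fluorescence intensity in arbitrary units.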
row,Sequence,binding signal
1,AAACAAAACTATGGACTATGATTTGACGTAAGCATCATGTCGGAGTCACCTAGTGCAG,4520 fluorescence intensity (a.u.)
2,GTGTGTGTGTGTGTGTGTGTGTGTGTGTGTTTTAGCAACTCGGAGTCACCTAGTGCAG,5690 fluorescence intensity (a.u.)
3,GCTTCTTCCCCAACACCTCCATCAACAACGTCACCCTCCGCGGAGTCACCTAGTGCAG,4180 fluorescence intensity (a.u.)
4,CGCGAGGAAGGCGATGACAGGTGGGCCCCACCCGTCAGCGCGGAGTCACCTAGTGCAG,3340 fluorescence intensity (a.u.)
5,GGGTGGTGATGCATGTGCTTCTACAATCATGTATTGGTTACGGAGTCACCTAGTGCAG,3770 fluorescence intensity (a.u.)
6,AAATCACTGCAGTCCTATTGATGATAGCGTGGCGTCGCAGCGGAGTCACCTAGTGCAG,5520 fluorescence intensity (a.u.)
7,CATCAAGTCATCAACAGTCACATGCCCTGCTAGCTAGTACCGGAGTCACCTAGTGCAG,22400 fluorescence intensity (a.u.)
8,GCCGGCGGCCATCGGCGTCGCCTACGTCGCCGTCAAGCCTCGGAGTCACCTAGTGCAG,19100 fluorescence intensity (a.u.)
9,TCAGTTGTTTACTGTCATGGTGTCATATTTCTCGCATCGACGGAGTCACCTAGTGCAG,4350 fluorescence intensity (a.u.)
10,ATTTGGGCGGCAAGCTGACGTGGCACACGGCGTCATGACTCGGAGTCACCTAGTGCAG,18100 fluorescence intensity (a.u.)
11,ACGTCTCCTCCTCCTCCACGTCAAACCACAATCCAACCAACGGAGTCACCTAGTGCAG,5400 fluorescence intensity (a.u.)
12,AATCTGCGGCGCGAGGCGGAGGTGGTGGTGGTGGTGGTGGCGGAGTCACCTAGTGCAG,3950 fluorescence intensity (a.u.)
13,TACAGAGGATATCTGCACATGCGACGCTATGAAATAAACGCGGAGTCACCTAGTGCAG,3980 fluorescence intensity (a.u.)
14,TCGGCCAATGCGGAGCCGTCAGCTCTCCGCTGCTCGGCTACGGAGTCACCTAGTGCAG,44400 fluorescence intensity (a.u.)
15,GATGGACATTGTTTGCCATCACCGTCAACGACCGTTGACTCGGAGTCACCTAGTGCAG,3760 fluorescence intensity (a.u.)
16,GCGCAGGGCTTCCCATTGACGCATAGCGCATACTCCAGCGCGGAGTCACCTAGTGCAG,3250 fluorescence intensity (a.u.)
17,GTGGCAATGCAGCATCATAGCTGGCTGTCGGTTGCCGCTACGGAGTCACCTAGTGCAG,3410 fluorescence intensity (a.u.)
18,GGGCAACATCAGTGTCATCATTCCTCATGAGCACCTCAGCCGGAGTCACCTAGTGCAG,3910 fluorescence intensity (a.u.)
19,ATTAATTAGCTAGTGCGCCCCTGCCTGCTCATGAGTCATGCGGAGTCACCTAGTGCAG,10600 fluorescence intensity (a.u.)
20,GATCCACCCACGCATCGATTCGCTGGACGTACGCCACATTCGGAGTCACCTAGTGCAG,3540 fluorescence intensity (a.u.)
21,GAGAGGCGAAGCTCGGGGACACGTGAACACATCGGCTTTTCGGAGTCACCTAGTGCAG,3490 fluorescence intensity (a.u.)

# 2 entries from above, tab-delimited:
row	Sequence	binding signal
5	GGGTGGTGATGCATGTGCTTCTACAATCATGTATTGGTTACGGAGTCACCTAGTGCAG	3770 fluorescence intensity (a.u.)
8	GCCGGCGGCCATCGGCGTCGCCTACGTCGCCGTCAAGCCTCGGAGTCACCTAGTGCAG	19100 fluorescence intensity (a.u.)

# The list continues.

row,Sequence,binding signal
1,CAGTGACTAGTGACAAACGATCGATCGATCCCTCCATCCACGGAGTCACCTAGTGCAG,4780 fluorescence intensity (a.u.)
2,GCGGTTTCGTCCGACGTGGCGTCATTGACCCGGTTGACGACGGAGTCACCTAGTGCAG,13000 fluorescence intensity (a.u.)
3,TGAAGAGATCCAACAAAGTTCAAATTGACAAAGCACATTCCGGAGTCACCTAGTGCAG,3180 fluorescence intensity (a.u.)
4,TTGCCAGTGGCACACGTATCTCACCACATGCCACTGCATTCGGAGTCACCTAGTGCAG,3620 fluorescence intensity (a.u.)
5,GAACATGTATGAATGCGTGCATCCACTGGTGCATGCAGCACGGAGTCACCTAGTGCAG,3140 fluorescence intensity (a.u.)
6,CACAAATGAAGAAACAAGGTGTTGCATCACCAGTCATGGGCGGAGTCACCTAGTGCAG,6740 fluorescence intensity (a.u.)
7,GTACCCCTCACGGTAAGCCCGGTAACCGCGCGGTTACCGGCGGAGTCACCTAGTGCAG,22900 fluorescence intensity (a.u.)
8,AGACCAAGTAGTACCACCACTTCGTAGCCCAAATCAAACGCGGAGTCACCTAGTGCAG,3190 fluorescence intensity (a.u.)
9,CTCGTCTCTCGGTCTCGTTCCCGTACACGTCGCGATGTGACGGAGTCACCTAGTGCAG,4420 fluorescence intensity (a.u.)
10,CCTCCGGCGCTCACGGCGACGATGTGGCGACTCTCGGCGGCGGAGTCACCTAGTGCAG,3380 fluorescence intensity (a.u.)
11,TGTATGTATGACATGTGGGACTAGATATTAATTTTGTAGTCGGAGTCACCTAGTGCAG,5090 fluorescence intensity (a.u.)
12,TCCTGCCAATCTGTAACGACAGTGGCCGATACAATCGTCCCGGAGTCACCTAGTGCAG,3750 fluorescence intensity (a.u.)
13,TTACTGTTTCCAACACTGTTGAGTAACCACGTCCTTCGACCGGAGTCACCTAGTGCAG,3610 fluorescence intensity (a.u.)
14,TAGGATGCCACATCCTCATCCTTGATGGAACAACCACGTTCGGAGTCACCTAGTGCAG,5890 fluorescence intensity (a.u.)
15,GTGCTCATTTAATTGCTAAGATACACGTTTGCTAGTGCATCGGAGTCACCTAGTGCAG,3780 fluorescence intensity (a.u.)
16,GTGAGATGTTGCTTGGAGCATGCTGCGTCGGTGGCGAAAACGGAGTCACCTAGTGCAG,3920 fluorescence intensity (a.u.)
17,AAATACCCACGTCACCACGTGAAGTGACGTCAGGTGGCCGCGGAGTCACCTAGTGCAG,17700 fluorescence intensity (a.u.)
18,TCGGAGGGGCAAAGCGATTTCATTGTCATCATCGATATTTCGGAGTCACCTAGTGCAG,3220 fluorescence intensity (a.u.)
19,CCGCCTGTGCCACTCTCCACGCGCGACACGTGTCCAGTCGCGGAGTCACCTAGTGCAG,18300 fluorescence intensity (a.u.)
20,CTAGCATTTAGCACGACTTCACGGATCTTTAGCTAGGTCACGGAGTCACCTAGTGCAG,3210 fluorescence intensity (a.u.)
21,ATGTGGGTCCCACGCTGACTCAGTCGCCATGTCGGACAAACGGAGTCACCTAGTGCAG,5760 fluorescence intensity (a.u.)
